Assay results published in the supplement of paper PMC4604168 (melanoma cell lines).
The list shows a part of the results. Repeats are few or missing, and single values can be far off.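 The apoptosis fraction was the count of cleaved-PARP antibody-stained nuclei relative to all DNA-stained nuclei, imaged in 1,536-well plates. Screening doses were set so most cells survived, and baseline and induced cleaved-PARP levels vary greatly across cell lines.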

Tests used:
Assay in all cases: cleaved PARP positive nuclei fraction relative to DMSO control; melanoma cells; higher = more apoptosis
Conditions in all cases: library dose: low library concentration; 72 h
WM115 = test system: WM115
WM1716 = test system: WM1716
WM1745 = test system: WM1745
WM3526 = test system: WM3526
WM3619 = test system: WM3619
WM451Lu = test system: WM451Lu

Row | SMILES | cleaved PARP positive nuclei fraction (WM115) [%] | cleaved PARP positive nuclei fraction (WM1716) [%] | cleaved PARP positive nuclei fraction (WM1745) [%] | cleaved PARP positive nuclei fraction (WM3526) [%] | cleaved PARP positive nuclei fraction (WM3619) [%] | cleaved PARP positive nuclei fraction (WM451Lu) [%]
1 | CCCCCCCCCCCCCCCCCCOP(=O)([O-])OC1CC[N+](C)(C)CC1 [Perifosine] + O=S(=O)(c1ccccc1)N(CC(F)(F)F)c1ccc(C(O)(C(F)(F)F)C(F)(F)F)cc1 [T0901317] (first compound 0.4 µM, partner dose 1.4 µM) | 170 | 238 | 103 | 84.1 | 192 | 85.4
2 | N#CC[C@H](C1CCCC1)n1cc(-c2ncnc3[nH]ccc23)cn1 [ruxolitinib] + Cc1ccc(Nc2nccc(N(C)c3ccc4c(C)n(C)nc4c3)n2)cc1S(N)(=O)=O [Pazopanib] (first compound 1 µM, partner dose 0.4 µM) | 95.9 | 78.3 | 126 | 158 | 77.6 | 47
3 | Cc1cn(-c2cc(NC(=O)c3ccc(C)c(Nc4nccc(-c5cccnc5)n4)c3)cc(C(F)(F)F)c2)cn1 [nilotinib] + C#Cc1cccc(Nc2ncnc3cc(OCCOC)c(OCCOC)cc23)c1 [erlotinib] (first compound 0.2 µM, partner dose 0.8 µM) | 20.9 | 73.5 | 110 | 51.4 | 94.3 | 62.1
4 | O=C(Nc1cc(C(F)(F)F)cc(C(F)(F)F)c1)c1cc(Cl)ccc1O + CC(C)(C)c1cnc(CSc2cnc(NC(=O)C3CCNCC3)s2)o1 [SNS-032] (first compound 0.016 µM, partner dose 0.01 µM) | 45.4 | 149 | 101 | 42.9 | 97 | 68
5 | COc1cc([C@@H]2c3cc4c(cc3[C@@H](O[C@@H]3O[C@@H]5CO[C@@H](C)O[C@H]5[C@H](O)[C@H]3O)[C@H]3COC(=O)[C@H]23)OCO4)cc(OC)c1O [etoposide] + CCCCCCCCc1ccc(CCC(N)(CO)CO)cc1 [fingolimod] (first compound 0.02 µM, partner dose 2 µM) | 125 | – | 124 | 206 | 138 | 96.2
6 | Cc1cc(Nc2cc(N3CCN(C)CC3)nc(Sc3ccc(NC(=O)C4CC4)cc3)n2)n[nH]1 [Tozasertib] + C[C@]1(c2nc3c(C(N)=O)cccc3[nH]2)CCCN1 [Veliparib] (first compound 0.006 µM, partner dose 1.4 µM) | 112 | 44.4 | 117 | 20.8 | 137 | 77.3
7 | N#CC[C@H](C1CCCC1)n1cc(-c2ncnc3[nH]ccc23)cn1 [ruxolitinib] + O=C(O)c1ccc(-c2c[nH]c3ncc(-c4ccccc4)cc23)cc1C1CCCC1 [GSK650394] (first compound 1 µM, partner dose 0.16 µM) | 78.2 | 96.7 | 84.1 | – | 121 | 90.4
8 | Cc1cc(Nc2cc(N3CCN(C)CC3)nc(Sc3ccc(NC(=O)C4CC4)cc3)n2)n[nH]1 [Tozasertib] + CCCCCCCCc1ccc(CCC(N)(CO)CO)cc1 [fingolimod] (first compound 0.006 µM, partner dose 2 µM) | 128 | 80.1 | 103 | 67.3 | 103 | 94.9
9 | CC[C@]1(O)C[C@H]2CN(CCc3c([nH]c4ccccc34)[C@@](C(=O)OC)(c3cc4c(cc3OC)N(C=O)[C@H]3[C@@](O)(C(=O)OC)[C@H](OC(C)=O)[C@]5(CC)C=CCN6CC[C@]43[C@@H]65)C2)C1 [vincristine] + COCC[n+]1c2c(n(Cc3cnccn3)c1C)C(=O)c1ccccc1C2=O [YM155] (first compound 0.0001 µM, partner dose 0.0004 µM) | 857 | 1970 | 105 | 63 | 164 | 176
10 | O=C(/C=C/c1cccnc1)NCCCCC1CCN(C(=O)c2ccccc2)CC1 + COc1ccc2c(c1)CCC1C2CCC2(C)C(NCCCCCCN3C(=O)C=CC3=O)CCC12 [U73122] (first compound 0.01 µM, partner dose 0.4 µM) | 77.5 | 163 | 88.4 | 79.4 | 106 | 97.9
11 | CCCCCCCCCCCCCCCCCCOP(=O)([O-])OC1CC[N+](C)(C)CC1 [Perifosine] + COc1ccc2c(c1)CCC1C2CCC2(C)C(NCCCCCCN3C(=O)C=CC3=O)CCC12 [U73122] (first compound 0.4 µM, partner dose 0.4 µM) | 115 | 247 | 90.4 | 82.4 | 84.3 | 53.4
12 | O=C(/C=C/c1cccnc1)NCCCCC1CCN(C(=O)c2ccccc2)CC1 + C[C@@H](Oc1cc(-c2cnn(C3CCNCC3)c2)cnc1N)c1c(Cl)ccc(F)c1Cl [Crizotinib] (first compound 0.01 µM, partner dose 0.2 µM) | 68.3 | 125 | 106 | 28 | 102 | 30.3
13 | Cc1cn(-c2cc(NC(=O)c3ccc(C)c(Nc4nccc(-c5cccnc5)n4)c3)cc(C(F)(F)F)c2)cn1 [nilotinib] + Cc1cc(N2CCOCC2)cc2[nH]c(-c3c(NC[C@@H](O)c4cccc(Cl)c4)cc[nH]c3=O)nc12 [BMS536924] (first compound 0.2 µM, partner dose 0.2 µM) | 148 | 51.8 | 142 | 141 | 83.1 | 85.3
14 | Cc1ccc(Nc2nccc(N(C)c3ccc4c(C)n(C)nc4c3)n2)cc1S(N)(=O)=O [Pazopanib] + O=C1NC(=O)/C(=C/c2ccc(-c3ccc(F)cc3O)o2)S1 [AS252424] (first compound 0.4 µM, partner dose 1 µM) | 147 | 45.1 | 85.9 | 74.5 | 104 | 38.3
15 | COc1cc([C@@H]2c3cc4c(cc3[C@@H](O[C@@H]3O[C@@H]5CO[C@@H](C)O[C@H]5[C@H](O)[C@H]3O)[C@H]3COC(=O)[C@H]23)OCO4)cc(OC)c1O [etoposide] + Cc1cc(N2CCOCC2)cc2[nH]c(-c3c(NC[C@@H](O)c4cccc(Cl)c4)cc[nH]c3=O)nc12 [BMS536924] (first compound 0.02 µM, partner dose 0.2 µM) | 38.5 | 126 | – | 65.9 | 116 | 120
16 | N#CC[C@H](C1CCCC1)n1cc(-c2ncnc3[nH]ccc23)cn1 [ruxolitinib] + C=CCNC1=C2C[C@@H](C)C[C@H](OC)[C@H](O)[C@@H](C)/C=C(\C)[C@H](OC(N)=O)[C@@H](OC)/C=C\C=C(/C)C(=O)NC(=CC1=O)C2=O [Tanespimycin] (first compound 1 µM, partner dose 0.002 µM) | 50 | 452 | 126 | 88.3 | 140 | 257
17 | COc1cc([C@@H]2c3cc4c(cc3[C@@H](O[C@@H]3O[C@@H]5CO[C@@H](C)O[C@H]5[C@H](O)[C@H]3O)[C@H]3COC(=O)[C@H]23)OCO4)cc(OC)c1O [etoposide] + O=C(Nc1ccccc1)c1cc([N+](=O)[O-])ccc1Cl [GW9662] (first compound 0.02 µM, partner dose 2 µM) | 112 | 196 | – | 92.1 | – | 131
18 | CCCCCCCCCCCCCCCCCCOP(=O)([O-])OC1CC[N+](C)(C)CC1 [Perifosine] + NC(=O)Nc1cc(-c2cccc(F)c2)sc1C(=O)N[C@H]1CCCNC1 [AZD7762] (first compound 0.4 µM, partner dose 0.02 µM) | 198 | 225 | 80.6 | 63 | 163 | 254
19 | COc1cc([C@@H]2c3cc4c(cc3[C@@H](O[C@@H]3O[C@@H]5CO[C@@H](C)O[C@H]5[C@H](O)[C@H]3O)[C@H]3COC(=O)[C@H]23)OCO4)cc(OC)c1O [etoposide] + C=CCNC1=C2C[C@@H](C)C[C@H](OC)[C@H](O)[C@@H](C)/C=C(\C)[C@H](OC(N)=O)[C@@H](OC)/C=C\C=C(/C)C(=O)NC(=CC1=O)C2=O [Tanespimycin] (first compound 0.02 µM, partner dose 0.002 µM) | – | 28.9 | 101 | 140 | 104 | 25.9
20 | CC[C@]1(O)C[C@H]2CN(CCc3c([nH]c4ccccc34)[C@@](C(=O)OC)(c3cc4c(cc3OC)N(C=O)[C@H]3[C@@](O)(C(=O)OC)[C@H](OC(C)=O)[C@]5(CC)C=CCN6CC[C@]43[C@@H]65)C2)C1 [vincristine] + C[C@@H](Oc1cc(-c2cnn(C3CCNCC3)c2)cnc1N)c1c(Cl)ccc(F)c1Cl [Crizotinib] (first compound 0.0001 µM, partner dose 0.2 µM) | 1020 | 149 | 112 | 241 | 135 | 49.8
21 | CCCCCCCCCCCCCCCCCCOP(=O)([O-])OC1CC[N+](C)(C)CC1 [Perifosine] + COc1cc2c(Oc3ccc4[nH]c(C)cc4c3F)ncnc2cc1OCCCN1CCCC1 [cediranib] (first compound 0.4 µM, partner dose 0.4 µM) | 115 | 53.7 | 86.7 | 63 | 79.4 | 307
22 | COc1cc([C@@H]2c3cc4c(cc3[C@@H](O[C@@H]3O[C@@H]5CO[C@@H](C)O[C@H]5[C@H](O)[C@H]3O)[C@H]3COC(=O)[C@H]23)OCO4)cc(OC)c1O [etoposide] + CCCCCCCCCCCCCCCCCCOP(=O)([O-])OC1CC[N+](C)(C)CC1 [Perifosine] (first compound 0.02 µM, partner dose 0.4 µM) | 106 | 72.3 | 79 | 67.9 | – | 33
23 | N#CC[C@H](C1CCCC1)n1cc(-c2ncnc3[nH]ccc23)cn1 [ruxolitinib] + O=S(=O)(c1ccccc1)N(CC(F)(F)F)c1ccc(C(O)(C(F)(F)F)C(F)(F)F)cc1 [T0901317] (first compound 1 µM, partner dose 1.4 µM) | 137 | 130 | 86.4 | 65.3 | 88.1 | 74.9
24 | CC[C@]1(O)C[C@H]2CN(CCc3c([nH]c4ccccc34)[C@@](C(=O)OC)(c3cc4c(cc3OC)N(C=O)[C@H]3[C@@](O)(C(=O)OC)[C@H](OC(C)=O)[C@]5(CC)C=CCN6CC[C@]43[C@@H]65)C2)C1 [vincristine] + O=C(O)c1ccc2c(c1)nc(Nc1cccc(Cl)c1)c1ccncc12 [CX4945] (first compound 0.0001 µM, partner dose 0.4 µM) | 947 | 333 | 85 | 96.3 | 231 | 67.2
25 | Cc1cc(Nc2cc(N3CCN(C)CC3)nc(Sc3ccc(NC(=O)C4CC4)cc3)n2)n[nH]1 [Tozasertib] + Cc1cc(Nc2cc(N3CCN(C)CC3)nc(/C=C/c3ccccc3)n2)n[nH]1 [ENMD2076] (first compound 0.006 µM, partner dose 0.04 µM) | 118 | 35 | 100 | 36.8 | 92.4 | 44.9
26 | O=c1[nH]nc(Sc2ncc([N+](=O)[O-])s2)n1-c1ccc2c(c1)OCCO2 + NC1(c2ccc(-c3nc4ccn5c(=O)[nH]nc5c4cc3-c3ccccc3)cc2)CCC1 [MK2206] (first compound 0.2 µM, partner dose 0.4 µM) | 160 | 33.2 | 97.4 | 77.3 | 108 | 182
27 | O=c1[nH]nc(Sc2ncc([N+](=O)[O-])s2)n1-c1ccc2c(c1)OCCO2 + COc1cc(Nc2ncc(F)c(Nc3ccc4c(n3)NC(=O)C(C)(C)O4)n2)cc(OC)c1OC [Tamatinib] (first compound 0.2 µM, partner dose 0.4 µM) | 115 | 161 | 120 | 42.8 | 93.4 | 125

Reformatted as tab-separated lines: entries from further up.
Row	SMILES	cleaved PARP positive nuclei fraction (WM115) [%]	cleaved PARP positive nuclei fraction (WM1716) [%]	cleaved PARP positive nuclei fraction (WM1745) [%]	cleaved PARP positive nuclei fraction (WM3526) [%]	cleaved PARP positive nuclei fraction (WM3619) [%]	cleaved PARP positive nuclei fraction (WM451Lu) [%]
16	N#CC[C@H](C1CCCC1)n1cc(-c2ncnc3[nH]ccc23)cn1 [ruxolitinib] + C=CCNC1=C2C[C@@H](C)C[C@H](OC)[C@H](O)[C@@H](C)/C=C(\C)[C@H](OC(N)=O)[C@@H](OC)/C=C\C=C(/C)C(=O)NC(=CC1=O)C2=O [Tanespimycin] (first compound 1 µM, partner dose 0.002 µM)	50	452	126	88.3	140	257
17	COc1cc([C@@H]2c3cc4c(cc3[C@@H](O[C@@H]3O[C@@H]5CO[C@@H](C)O[C@H]5[C@H](O)[C@H]3O)[C@H]3COC(=O)[C@H]23)OCO4)cc(OC)c1O [etoposide] + O=C(Nc1ccccc1)c1cc([N+](=O)[O-])ccc1Cl [GW9662] (first compound 0.02 µM, partner dose 2 µM)	112	196	–	92.1	–	131
